# No constants are given. Whether binding was seen depends on the method and setting. In cells and extracts the contact can be indirect. Some binding calls cover weakened binding; strength is not graded here.
# By UniProt entry, the sequences of proteins in these tests, tags left out.
# UniProt P68400: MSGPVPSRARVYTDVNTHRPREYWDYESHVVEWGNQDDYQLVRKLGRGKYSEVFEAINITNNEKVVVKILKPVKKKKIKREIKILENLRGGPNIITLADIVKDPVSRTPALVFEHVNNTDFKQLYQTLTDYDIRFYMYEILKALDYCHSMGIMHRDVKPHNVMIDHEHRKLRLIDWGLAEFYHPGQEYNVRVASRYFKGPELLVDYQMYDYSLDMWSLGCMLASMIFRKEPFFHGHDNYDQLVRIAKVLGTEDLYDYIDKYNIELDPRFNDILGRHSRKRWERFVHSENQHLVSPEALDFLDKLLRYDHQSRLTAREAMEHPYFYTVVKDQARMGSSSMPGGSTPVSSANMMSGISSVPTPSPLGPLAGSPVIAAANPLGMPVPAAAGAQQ
# Legend:
# [1] = target: T1, NOLC1 (human Nopp140) (human (endogenous in KKU-055 and KKU-213)) (UniProt Q14978); test: co-IP; data not shown; short-time LAT1-inhibited (JPH203-treated) cells; cell line and time not stated
# T1 sequence: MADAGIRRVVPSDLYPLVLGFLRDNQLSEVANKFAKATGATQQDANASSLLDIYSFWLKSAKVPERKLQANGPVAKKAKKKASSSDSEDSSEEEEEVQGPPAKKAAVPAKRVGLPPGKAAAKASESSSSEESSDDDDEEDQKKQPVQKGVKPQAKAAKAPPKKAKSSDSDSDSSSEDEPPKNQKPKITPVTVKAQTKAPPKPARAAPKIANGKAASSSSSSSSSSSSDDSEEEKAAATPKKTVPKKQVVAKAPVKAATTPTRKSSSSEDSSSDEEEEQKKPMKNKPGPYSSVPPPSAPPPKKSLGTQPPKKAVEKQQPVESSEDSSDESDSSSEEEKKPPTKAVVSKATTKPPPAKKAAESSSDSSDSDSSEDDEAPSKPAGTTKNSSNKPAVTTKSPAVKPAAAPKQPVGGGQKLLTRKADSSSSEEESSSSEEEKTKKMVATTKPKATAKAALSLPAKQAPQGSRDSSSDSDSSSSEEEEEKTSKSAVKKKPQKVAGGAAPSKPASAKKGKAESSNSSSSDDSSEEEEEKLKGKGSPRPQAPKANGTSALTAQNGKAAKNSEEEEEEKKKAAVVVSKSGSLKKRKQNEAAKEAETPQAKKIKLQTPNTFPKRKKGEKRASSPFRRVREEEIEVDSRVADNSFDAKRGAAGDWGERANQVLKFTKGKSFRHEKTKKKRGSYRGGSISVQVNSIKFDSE
# [2] = target: T1, NOLC1 (human Nopp140) (human (endogenous in KKU-055 and KKU-213)); test: co-IP; control (untreated) KKU-055 and KKU-213 cells; lysate in 50 mM Tris pH 7.4, 150 mM NaCl, 1% Triton X-100, PhosSTOP, protease inhibitors; 300 μg protein with 1 μg anti-NOLC1 antibody, 4 °C, protein A-agarose; Western blot for CK2α
substance,measurement,setting,value
"CK2α (CSNK2A1), catalytic subunit of protein kinase CK2 (from UniProt P68400 1-391) (enzyme)",binding,[1],binds
same,binding,[2],binds

# — paper PMC9650822
